# Source: the supplement of paper PMC8728848
# The other results are listed elsewhere or left out.
# B1: PX14343G-pdi-535-24-535 (Parabacteroides distasonis) (protein)
# chain: LDTVPKDQLAPSTTWQTEADAKGFIVGCYKDLLDGNTLLYLDCGSDIGYNNFPWEGFRPWGDGSLSSSNPGQILYDYKSIRKANTFLENVDKVTFSSDAVKANYVAQAKAIRAYKYFLMNWWYGGVPIISSYSSADEAKVERNTEQEVRDYIAKDLDEALAGIAEAPEARGYIAKGAVLAIKMREALYYGDWQKAKDAAKAIIDLKQYELDPDYTNLFKVSGVDSKEIILADQNIETLDGLGTIGQMYNNVDQGWSSIVPTQNLVDMYEMSDGLTKEESKTYDAKHPFANRDPRMAMTILYPGRDWRGDVLNTLDEKLQDGTVNKNFPTYTDNASKSALTWAKYLDPMDQYGDVWSSGACPIVFRYAEVLLTYAEAANELSGPSDEIYGYLNQIRQRVGMGEVDKAKYGTKDKLRELIRRERTVELAGEGLRRADIVRWQEDGKMLAEKVMNGDLLRVTGTINYGESEPTKRAEITGTAVIETRQFSSRNRYLPIPQTSMDKNPNLKQNPGY
# Assays:
# Test in all cases: glycan array binding signal (z-score within array); higher = stronger binding
# Conditions in all cases: glycan notation: IUPAC condensed, linker removed
# Kdn(a2-3)Gal(b1-4)Glc = molecular target: Kdn(a2-3)Gal(b1-4)Glc
# Method in brief: (§1)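 The Consortium for Functional Glycomics database supplied 3228 glycan arrays, of which those lacking an available protein sequence were dropped. The binding signal, a within-array Z-score, was averaged across arrays of the same protein sequence and across linkers. Negative scores can be read as non-binding.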
# Kdn(a2-3)Gal(b1-4)GlcNAc = molecular target: Kdn(a2-3)Gal(b1-4)GlcNAc
# Method in brief: as §1
# [1] = molecular target: Kdn(a2-3)Gal(b1-4)[Fuc(a1-3)]GlcNAc
# Method in brief: as §1
# Kdn(a2-6)Gal(b1-4)GlcNAc = molecular target: Kdn(a2-6)Gal(b1-4)GlcNAc
# Method in brief: as §1
# [2] = molecular target: Man(a1-2)Man(a1-2)Man(a1-3)Man
# Method in brief: as §1
# [3] = molecular target: Man(a1-2)Man(a1-2)Man(a1-6)[Man(a1-3)]Man
# Method in brief: as §1
# Man(a1-2)Man(a1-3)Man = molecular target: Man(a1-2)Man(a1-3)Man
# Method in brief: as §1
# [4] = molecular target: Man(a1-2)Man(a1-3)[Man(a1-2)Man(a1-6)]Man
# Method in brief: as §1
# [5] = molecular target: Man(a1-2)Man(a1-3)[Man(a1-2)Man(a1-6)]Man(a1-6)[Man(a1-2)Man(a1-2)Man(a1-3)]Man
# Method in brief: as §1
# [6] = molecular target: Man(a1-2)Man(a1-3)[Man(a1-2)Man(a1-6)]Man(a1-6)[Man(a1-2)Man(a1-2)Man(a1-3)]Man(b1-4)GlcNAc(b1-4)GlcNAc
# Method in brief: as §1
# [7] = molecular target: Man(a1-2)Man(a1-3)[Man(a1-6)]Man(a1-6)[Man(a1-2)Man(a1-3)]Man(b1-4)GlcNAc(b1-4)GlcNAc
# Method in brief: as §1
# [8] = molecular target: Man(a1-2)Man(a1-6)[Man(a1-3)]Man(a1-6)[Man(a1-2)Man(a1-2)Man(a1-3)]Man
# Method in brief: as §1
# [9] = molecular target: Man(a1-2)Man(a1-6)[Man(a1-3)]Man(a1-6)[Man(a1-2)Man(a1-2)Man(a1-3)]Man(b1-4)GlcNAc(b1-4)GlcNAc
# Method in brief: as §1
# Man(a1-3)[Man(a1-6)]Man = molecular target: Man(a1-3)[Man(a1-6)]Man
# Method in brief: as §1
# [10] = molecular target: Man(a1-3)[Man(a1-6)]Man(a1-6)[Man(a1-2)Man(a1-3)]Man(b1-4)GlcNAc(b1-4)GlcNAc
# Method in brief: as §1
# [11] = molecular target: Man(a1-3)[Man(a1-6)]Man(a1-6)[Man(a1-3)]Man
# Method in brief: as §1
# [12] = molecular target: Man(a1-3)[Man(a1-6)]Man(a1-6)[Man(a1-3)]Man(b1-4)GlcNAc(b1-4)GlcNAc
# Method in brief: as §1
# [13] = molecular target: Man(a1-3)[Man(a1-6)]Man(b1-4)GlcNAc(b1-4)GlcNAc
# Method in brief: as §1
# [14] = molecular target: Man(a1-3)[Man(a1-6)]Man(b1-4)GlcNAc(b1-4)[Fuc(a1-6)]GlcNAc
# Method in brief: as §1
# Man(a1-6)Man = molecular target: Man(a1-6)Man
# Method in brief: as §1
# Man(b1-4)GlcNAc = molecular target: Man(b1-4)GlcNAc
# Method in brief: as §1
# MurNAc(b1-4)GlcNAc = molecular target: MurNAc(b1-4)GlcNAc
# Method in brief: as §1
# Neu5Ac(a2-3)Gal = molecular target: Neu5Ac(a2-3)Gal
# Method in brief: as §1
# [15] = molecular target: Neu5Ac(a2-3)Gal(b1-3)GalNAc
# Method in brief: as §1
# [16] = molecular target: Neu5Ac(a2-3)Gal(b1-3)GalNAc(b1-3)Gal(a1-4)Gal(b1-4)Glc
# Method in brief: as §1
# [17] = molecular target: Neu5Ac(a2-3)Gal(b1-3)GalNAc(b1-4)[Neu5Ac(a2-3)]Gal(b1-4)Glc
# Method in brief: as §1
# [18] = molecular target: Neu5Ac(a2-3)Gal(b1-3)GalNAc(b1-4)[Neu5Ac(a2-8)Neu5Ac(a2-3)]Gal(b1-4)Glc
# Method in brief: as §1
# [19] = molecular target: Neu5Ac(a2-3)Gal(b1-3)GalNAc6S
# Method in brief: as §1
# [20] = molecular target: Neu5Ac(a2-3)Gal(b1-3)GlcNAc
# Method in brief: as §1
# [21] = molecular target: Neu5Ac(a2-3)Gal(b1-3)GlcNAc(b1-2)Man
# Method in brief: as §1
# [22] = molecular target: Neu5Ac(a2-3)Gal(b1-3)GlcNAc(b1-2)Man(a1-3)[GlcNAc(b1-4)][Neu5Ac(a2-3)Gal(b1-3)GlcNAc(b1-2)Man(a1-6)]Man(b1-4)GlcNAc(b1-4)GlcNAc
# Method in brief: as §1
# [23] = molecular target: Neu5Ac(a2-3)Gal(b1-3)GlcNAc(b1-2)Man(a1-3)[Neu5Ac(a2-3)Gal(b1-3)GlcNAc(b1-2)Man(a1-6)]Man(b1-4)GlcNAc(b1-4)GlcNAc
# Method in brief: as §1
# [24] = molecular target: Neu5Ac(a2-3)Gal(b1-3)GlcNAc(b1-3)Gal(b1-3)GlcNAc
# Method in brief: as §1
# [25] = molecular target: Neu5Ac(a2-3)Gal(b1-3)GlcNAc(b1-3)Gal(b1-4)GlcNAc
# Method in brief: as §1
# [26] = molecular target: Neu5Ac(a2-3)Gal(b1-3)GlcNAc(b1-3)GalNAc
# Method in brief: as §1
# [27] = molecular target: Neu5Ac(a2-3)Gal(b1-3)GlcNAc(b1-4)Gal(b1-4)Glc
# Method in brief: as §1
# [28] = molecular target: Neu5Ac(a2-3)Gal(b1-3)GlcNAc(b1-6)GalNAc
# Method in brief: as §1
# [29] = molecular target: Neu5Ac(a2-3)Gal(b1-3)GlcNAc6S
# Method in brief: as §1
binder,measurement,setting,value
B1,glycan array binding signal (z-score),Kdn(a2-3)Gal(b1-4)Glc,0.265
same,glycan array binding signal (z-score),Kdn(a2-3)Gal(b1-4)GlcNAc,-0.191
same,glycan array binding signal (z-score),[1],-0.272
same,glycan array binding signal (z-score),Kdn(a2-6)Gal(b1-4)GlcNAc,0.115
same,glycan array binding signal (z-score),[2],0.086
same,glycan array binding signal (z-score),[3],-0.28
same,glycan array binding signal (z-score),Man(a1-2)Man(a1-3)Man,-0.387
same,glycan array binding signal (z-score),[4],-0.447
same,glycan array binding signal (z-score),[5],-0.205
same,glycan array binding signal (z-score),[6],0.892
same,glycan array binding signal (z-score),[7],-0.884
same,glycan array binding signal (z-score),[8],-1.27
same,glycan array binding signal (z-score),[9],1.06
same,glycan array binding signal (z-score),Man(a1-3)[Man(a1-6)]Man,-1.51
same,glycan array binding signal (z-score),[10],-0.028
same,glycan array binding signal (z-score),[11],-0.217
same,glycan array binding signal (z-score),[12],0.904
same,glycan array binding signal (z-score),[13],-0.762
same,glycan array binding signal (z-score),[14],0.371
same,glycan array binding signal (z-score),Man(a1-6)Man,2.08
same,glycan array binding signal (z-score),Man(b1-4)GlcNAc,1.13
same,glycan array binding signal (z-score),MurNAc(b1-4)GlcNAc,0.78
same,glycan array binding signal (z-score),Neu5Ac(a2-3)Gal,-0.963
same,glycan array binding signal (z-score),[15],-0.109
same,glycan array binding signal (z-score),[16],0.085
same,glycan array binding signal (z-score),[17],-0.642
same,glycan array binding signal (z-score),[18],0.336
same,glycan array binding signal (z-score),[19],-0.954
same,glycan array binding signal (z-score),[20],-0.984
same,glycan array binding signal (z-score),[21],0.495
same,glycan array binding signal (z-score),[22],-0.329
same,glycan array binding signal (z-score),[23],0.463
same,glycan array binding signal (z-score),[24],1.46
same,glycan array binding signal (z-score),[25],-0.799
same,glycan array binding signal (z-score),[26],-0.603
same,glycan array binding signal (z-score),[27],0.258
same,glycan array binding signal (z-score),[28],0.28
same,glycan array binding signal (z-score),[29],0.659

# Quoted at random: two entries already listed, in no set order.
binder,measurement,setting,value
B1,glycan array binding signal (z-score),[15],-0.109
same,glycan array binding signal (z-score),Man(a1-2)Man(a1-3)Man,-0.387
